For at least one compound, name, drawing or mass did not settle the structure.
Assay: Sensory evaluation of zero-calorie carbonated beverage samples by 20 panelists
Settings: 0.050% stevia composition
Protocol: The sensory properties were evaluated by 20 panelists.

Compound: C=C1C[C@@]23CC[C@H]4[C@@](C)(CCC[C@@]4(C)C(=O)O[C@@H]4O[C@H](CO)[C@@H](O)[C@H](O)[C@H]4O)[C@@H]2CC[C@]1(O[C@@H]1O[C@H](CO)[C@@H](O)[C@H](O[C@@H]2O[C@H](CO)[C@@H](O)[C@H](O)[C@H]2O)[C@H]1O[C@@H]1O[C@H](CO)[C@@H](O)[C@H](O)[C@H]1O)C3 [Reb A, rebaudioside A]
- Comments: Overall evaluation: Satisfactory
- Comments: Quality of sweet taste: Bitter aftertaste
